No constants are given. Whether binding was seen depends on the method and setting. In cells and extracts the contact can be indirect. A yes stands for co-enrichment or nearness to the bait. Other partners may have been found. Sequences can lack the tags named with a protein.
B1: β-tubulin 4B (TUBB4B), P68371 1-445 (protein)
chain: MREIVHLQAGQCGNQIGAKFWEVISDEHGIDPTGTYHGDSDLQLERINVYYNEATGGKYVPRAVLVDLEPGTMDSVRSGPFGQIFRPDNFVFGQSGAGNNWAKGHYTEGAELVDSVLDVVRKEAESCDCLQGFQLTHSLGGGTGSGMGTLLISKIREEYPDRIMNTFSVVPSPKVSDTVVEPYNATLSVHQLVENTDETYCIDNEALYDICFRTLKLTTPTYGDLNHLVSATMSGVTTCLRFPGQLNADLRKLAVNMVPFPRLHFFMPGFAPLTSRGSQQYRALTVPELTQQMFDAKNMMAACDPRHGRYLTVAAVFRGRMSMKEVDEQMLNVQNKNSSYFVEWIPNNVKTAVCDIPPRGLKMSATFIGNSTAIQELFKRISEQFTAMFRRKAFLHWYTGEGMDEMEFTEAESNMNDLVSEYQQYQDATAEEEGEFEEEAEEEVA

Protein sequences, listed by entry. Tags and fused reporters are not part of them.
UniProt P0DMV8: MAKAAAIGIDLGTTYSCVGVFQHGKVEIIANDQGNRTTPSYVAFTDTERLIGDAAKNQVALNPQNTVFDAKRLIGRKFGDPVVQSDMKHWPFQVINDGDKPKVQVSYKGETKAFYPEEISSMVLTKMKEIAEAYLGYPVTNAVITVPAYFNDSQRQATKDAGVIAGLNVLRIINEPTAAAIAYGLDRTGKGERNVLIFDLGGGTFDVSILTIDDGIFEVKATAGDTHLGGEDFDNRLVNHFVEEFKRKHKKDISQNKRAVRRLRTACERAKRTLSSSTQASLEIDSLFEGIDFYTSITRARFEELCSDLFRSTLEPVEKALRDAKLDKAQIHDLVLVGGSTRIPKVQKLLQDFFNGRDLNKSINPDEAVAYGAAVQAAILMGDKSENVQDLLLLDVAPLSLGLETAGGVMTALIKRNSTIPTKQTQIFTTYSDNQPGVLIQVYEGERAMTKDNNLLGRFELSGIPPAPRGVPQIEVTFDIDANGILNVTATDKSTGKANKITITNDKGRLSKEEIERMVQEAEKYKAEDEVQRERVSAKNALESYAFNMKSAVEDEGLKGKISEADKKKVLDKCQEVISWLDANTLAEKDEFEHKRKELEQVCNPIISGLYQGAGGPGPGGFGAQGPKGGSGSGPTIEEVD
UniProt P27708: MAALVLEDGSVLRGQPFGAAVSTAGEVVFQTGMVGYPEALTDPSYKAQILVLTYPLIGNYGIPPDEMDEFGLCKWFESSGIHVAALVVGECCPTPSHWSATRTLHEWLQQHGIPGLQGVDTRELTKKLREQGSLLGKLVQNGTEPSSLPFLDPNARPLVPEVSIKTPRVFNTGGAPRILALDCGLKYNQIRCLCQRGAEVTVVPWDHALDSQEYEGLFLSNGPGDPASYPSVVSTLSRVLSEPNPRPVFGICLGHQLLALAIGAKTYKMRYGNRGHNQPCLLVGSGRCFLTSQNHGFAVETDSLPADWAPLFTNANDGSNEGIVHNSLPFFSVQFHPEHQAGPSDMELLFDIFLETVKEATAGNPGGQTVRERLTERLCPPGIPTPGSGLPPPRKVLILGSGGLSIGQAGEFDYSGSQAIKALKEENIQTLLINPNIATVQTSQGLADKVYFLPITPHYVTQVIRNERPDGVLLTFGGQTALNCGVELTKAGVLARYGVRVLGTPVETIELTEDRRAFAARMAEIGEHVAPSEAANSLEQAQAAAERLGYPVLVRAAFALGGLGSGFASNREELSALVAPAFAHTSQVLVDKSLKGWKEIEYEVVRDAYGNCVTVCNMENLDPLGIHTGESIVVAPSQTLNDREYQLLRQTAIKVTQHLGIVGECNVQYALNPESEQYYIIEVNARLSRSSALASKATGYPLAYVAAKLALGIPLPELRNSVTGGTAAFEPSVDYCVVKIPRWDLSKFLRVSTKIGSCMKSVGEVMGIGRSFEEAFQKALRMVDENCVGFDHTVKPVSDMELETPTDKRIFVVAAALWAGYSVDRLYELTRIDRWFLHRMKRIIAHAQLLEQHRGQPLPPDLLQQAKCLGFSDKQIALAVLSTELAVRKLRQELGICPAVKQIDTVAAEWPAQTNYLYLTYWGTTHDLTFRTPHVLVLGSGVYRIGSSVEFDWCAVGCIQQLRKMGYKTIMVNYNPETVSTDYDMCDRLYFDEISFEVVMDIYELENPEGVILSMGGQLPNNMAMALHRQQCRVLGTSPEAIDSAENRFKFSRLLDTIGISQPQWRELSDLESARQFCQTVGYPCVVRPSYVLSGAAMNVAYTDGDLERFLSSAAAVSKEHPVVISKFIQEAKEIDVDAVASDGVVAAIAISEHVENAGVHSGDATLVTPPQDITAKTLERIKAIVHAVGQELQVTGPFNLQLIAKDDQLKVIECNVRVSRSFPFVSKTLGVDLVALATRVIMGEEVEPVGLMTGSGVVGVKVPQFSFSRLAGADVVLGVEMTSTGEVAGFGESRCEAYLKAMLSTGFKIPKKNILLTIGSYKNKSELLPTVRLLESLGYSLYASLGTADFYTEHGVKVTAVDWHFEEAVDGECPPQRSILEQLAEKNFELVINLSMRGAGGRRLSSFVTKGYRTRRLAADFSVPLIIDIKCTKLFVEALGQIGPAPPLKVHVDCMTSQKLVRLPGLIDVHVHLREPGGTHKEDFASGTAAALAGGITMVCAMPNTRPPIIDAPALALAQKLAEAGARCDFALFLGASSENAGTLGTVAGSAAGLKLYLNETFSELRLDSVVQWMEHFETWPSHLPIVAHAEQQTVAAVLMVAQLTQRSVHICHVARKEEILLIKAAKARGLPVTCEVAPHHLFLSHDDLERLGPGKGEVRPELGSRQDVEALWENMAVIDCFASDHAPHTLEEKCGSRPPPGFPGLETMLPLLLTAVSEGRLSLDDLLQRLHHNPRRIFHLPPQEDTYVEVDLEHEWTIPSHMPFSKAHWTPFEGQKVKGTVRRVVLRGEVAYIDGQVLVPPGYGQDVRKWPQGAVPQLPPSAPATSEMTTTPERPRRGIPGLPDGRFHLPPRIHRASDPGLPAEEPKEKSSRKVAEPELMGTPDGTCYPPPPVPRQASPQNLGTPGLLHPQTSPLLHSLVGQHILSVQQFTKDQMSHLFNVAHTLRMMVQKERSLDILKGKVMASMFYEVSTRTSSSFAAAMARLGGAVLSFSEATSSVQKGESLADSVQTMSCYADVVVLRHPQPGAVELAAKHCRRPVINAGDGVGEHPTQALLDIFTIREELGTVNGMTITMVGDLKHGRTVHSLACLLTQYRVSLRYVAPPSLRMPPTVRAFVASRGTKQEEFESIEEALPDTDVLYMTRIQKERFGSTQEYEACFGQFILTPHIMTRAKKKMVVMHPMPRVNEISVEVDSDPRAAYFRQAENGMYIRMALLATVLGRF

Columns and labels:
[1] = biological target: T1, N-terminal FLAG-WDR73 wild-type fusion protein (human) (UniProt Q6P4I2); experiment: affinity purification with mass spectrometry; FLAG-WDR73 immunoprecipitated from transfected HEK-293T lysate; eluted proteins separated by SDS-PAGE, Coomassie bands unique against empty vector (FLAG peptide only) excised, trypsin, MALDI-TOF peptide mass fingerprinting; n = 4 replicates
T1 sequence: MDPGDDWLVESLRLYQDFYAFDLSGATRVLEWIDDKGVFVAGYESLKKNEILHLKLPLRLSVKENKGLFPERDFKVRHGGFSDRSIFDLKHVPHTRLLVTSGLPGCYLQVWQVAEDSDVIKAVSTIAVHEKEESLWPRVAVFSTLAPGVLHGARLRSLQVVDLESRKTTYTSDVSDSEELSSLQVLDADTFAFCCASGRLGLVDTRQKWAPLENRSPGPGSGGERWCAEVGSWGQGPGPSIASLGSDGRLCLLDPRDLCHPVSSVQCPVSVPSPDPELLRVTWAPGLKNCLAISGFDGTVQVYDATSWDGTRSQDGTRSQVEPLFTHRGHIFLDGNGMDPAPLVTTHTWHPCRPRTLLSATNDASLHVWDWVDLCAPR

[2] = biological target: T2, N-terminal FLAG-WDR73 wild-type fusion protein (human), Q6P4I2; experiment: as above; settings: remark: other sources report otherwise
T2 chain: T1 sequence

Molecule | binding [1] | binding [2]
heat shock 70-kDa protein 1A/1B (HSP-70) (from UniProt P0DMV8 1-641) | binds | –
CAD (carbamoyl-phosphate synthetase 2, aspartate transcarbamylase, and dihydroorotase), endogenous (from UniProt P27708 1-2225) (enzyme) | binds | –
heat shock protein HSP90 alpha isoform 2 (HSP-90) (from UniProt P07900 1-732) | binds | –
B1 | – | binds
